{"source": "the supplement of paper PMC10338343", "note": "± gives the standard deviation. This is one part of the list. The uncertainty is large for many entries."}
{"system": "EfPiwi piRISC loaded with L1MC piRNA (26 nt)", "experiment": "pre-steady-state target cleavage rate (min^-1); guide: L1MC piRNA 5'p-UAACUAAAUACUAUGCAAGCUGUAGG; MIWI and MILI are mouse PIWI proteins and EfPiwi is from a freshwater sponge; tags in brackets are library labels; higher = faster piRNA-guided slicing of the target", "details": "auxiliary factor: none (no Gtsf1)", "procedure,_shortened": "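A burst-and-steady-state fit was used to obtain the pre-steady-state cleavage rate. The input data were sequencing reads of uncleaved targets, normalised to depth and to weakly complementary targets, from a […] transcribed, DNA-blocked target RNA library mixed with 1 nM active affinity-purified piRISC holding one synthetic guide, with or without 500 nM GTSF1 partner protein, in HEPES–potassium acetate buffer at 33 °C for 0–8 or 0–960 min. Three trials were pooled and k3 was capped at 0.0001 min^-1.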"}
{"sequence": "UCCUGCUACAGCUUGCAUACUAUUUUGUUA", "pre-steady-state target cleavage rate": "0.000717 ± 0.011"}
{"sequence": "UCCUGGAUGAGCUUGCAUAGUAUUAUCAAA", "pre-steady-state target cleavage rate": "0.000771 ± 0.0088"}
{"sequence": "UCCUGGAUGAGCUUGCAAAGUAUUUACUUA", "pre-steady-state target cleavage rate": "0.000261 ± 0.033"}
{"sequence": "UCCUGCAACAGCUUGCAUAGUAUUUACAAA", "pre-steady-state target cleavage rate": "0.000362 ± 0.022"}
{"sequence": "UCCUCCUACAGCUUGCAUAGUAUUGUAGUUA", "pre-steady-state target cleavage rate": "< 0.0001"}
{"sequence": "UCCUCCAACAGCUUCCAUAGUAUUUAGUUA", "pre-steady-state target cleavage rate": "0.000528 ± 0.01"}
{"sequence": "UCCUGCUACAGCUUGGAUAGUAUUUAGAUA", "pre-steady-state target cleavage rate": "0.000408 ± 0.011"}
{"sequence": "UCCUGGUACAGCUUGCAUAGUUAUUAGUAA", "pre-steady-state target cleavage rate": "0.00165 ± 0.0068"}
{"sequence": "UCCUGGAUGAGCUUGGCAUAGUAUUUAGUUA", "pre-steady-state target cleavage rate": "0.000243 ± 0.039"}
{"sequence": "UCCUGGAACAGCUUGCAUUGUAUUUUGUUA", "pre-steady-state target cleavage rate": "0.00126 ± 0.0065"}
{"sequence": "UCCUGGAUGAGCAUGCAUAGUAUUUUGUUA", "pre-steady-state target cleavage rate": "0.000641 ± 0.012"}
{"sequence": "UCCUGGAACAGCUUGCCAUAGUAUUUAGUUA", "pre-steady-state target cleavage rate": "0.000655 ± 0.011"}
{"sequence": "UCCUGGAUGUCGAACCAUCAGUAUUUAGUUA", "pre-steady-state target cleavage rate": "0.000227 ± 0.026"}
{"sequence": "UCCUGGAACAGCUUGCAUAGUAUUUUGAUA", "pre-steady-state target cleavage rate": "0.000657 ± 0.012"}
{"sequence": "UCCUGGAUCAGCUUGCAUAGUUUUUACUUA", "pre-steady-state target cleavage rate": "0.00017 ± 0.042"}
{"sequence": "UCCUCGUACAGCUUGCAUAGAAUUUAGUUA", "pre-steady-state target cleavage rate": "0.00853 ± 0.0037"}
{"sequence": "UCCUGGAACAGCUUGGAUACUAUUUAGUUA", "pre-steady-state target cleavage rate": "0.000228 ± 0.04"}
{"sequence": "UCCUGGAUGAGCUUGCAUAGUAUUUUGAUA", "pre-steady-state target cleavage rate": "0.000905 ± 0.011"}
{"sequence": "UCCUGGAUGUGCUUGCAUACUAUUUAGAUA", "pre-steady-state target cleavage rate": "0.000444 ± 0.015"}
{"sequence": "UCCUCCUACAGCUUGCAUAGUUUUUAGAUA", "pre-steady-state target cleavage rate": "0.000481 ± 0.013"}
{"sequence": "UCCUGGAUGUCGUUCCAUAGUAAUUAGUUA", "pre-steady-state target cleavage rate": "0.000185 ± 0.038"}
{"sequence": "UCCUGGUACAGGUUGCAUAGUAUUUAGAUA", "pre-steady-state target cleavage rate": "0.000451 ± 0.02"}
{"sequence": "UCCUGGAACAGCUUGCAUUGUAUUUAGAAA", "pre-steady-state target cleavage rate": "0.000134 ± 0.054"}
{"sequence": "UCCUGGUUCAGCUUGCAUAGUAUUUACAAA", "pre-steady-state target cleavage rate": "0.000747 ± 0.01"}
{"sequence": "UCCUGGAACAGCUUGCAUACUAUUUUGUUA", "pre-steady-state target cleavage rate": "0.000794 ± 0.011"}
{"sequence": "UCCUGGAUCAGCUUGCAUAGUAUAAUCAAA", "pre-steady-state target cleavage rate": "0.000466 ± 0.015"}
{"sequence": "UCCUGGAUGUCGAACGUAUCUAUUUAGUUUA", "pre-steady-state target cleavage rate": "0.000279 ± 0.017"}
{"sequence": "UCCUGGAUGUCCUUGCAUAGUAUUUGAGUUA", "pre-steady-state target cleavage rate": "0.00047 ± 0.014"}
{"sequence": "UCCUGGAACAGCUUGCAUUGUAUUUACAAA", "pre-steady-state target cleavage rate": "0.00036 ± 0.022"}
{"sequence": "UCCUGGAACAGCUUGCUUAGUAUUAAGUUA", "pre-steady-state target cleavage rate": "0.000898 ± 0.0096"}
{"sequence": "UCCUGGAUGUGCUUGCAUAGUAUUUACAUA", "pre-steady-state target cleavage rate": "0.000341 ± 0.032"}
{"sequence": "UCCUGGAUGAGCUUCCAUAGUAAUUAGUUA", "pre-steady-state target cleavage rate": "0.000401 ± 0.021"}
{"sequence": "UCCUCCUACACCUUGCAUAGUUUUUAGUUA", "pre-steady-state target cleavage rate": "0.000468 ± 0.013"}
{"sequence": "UCCUGGAACAGCUUGCAUAGUUUUUAGAUA", "pre-steady-state target cleavage rate": "0.000139 ± 0.02"}
{"sequence": "UCCUGGUACUGCUUGCAUAGUAUUAAGUUA", "pre-steady-state target cleavage rate": "0.000867 ± 0.0095"}
{"sequence": "UCCUGGAUGAGCUUGCAUAGUAAAUACAAA", "pre-steady-state target cleavage rate": "0.000267 ± 0.034"}
{"sequence": "UCCUCCUACAGCUUGCAUUCUAUUUAGUAA", "pre-steady-state target cleavage rate": "0.000276 ± 0.014"}
{"sequence": "UCCUGGAUGAGCUUGCAUAGUUUUUAGUAA", "pre-steady-state target cleavage rate": "0.000536 ± 0.019"}
{"sequence": "UCCUGGAUCAGCUUGCAUAGUAUUAUGAAA", "pre-steady-state target cleavage rate": "0.000276 ± 0.018"}
{"sequence": "UCCUCCUACAGCUUGCUUAGAAUUUAGUUA", "pre-steady-state target cleavage rate": "0.000913 ± 0.0053"}
